Source: PubChem BioAssay AID652243 (Drosophila RNAi Screening Center, 2013)
The deposit covers about 24,000 reagents; below is a random part of those that have a named target and a result. Of all reagents, 246 (1%) are marked active. 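Plates not normalised; calls are printed but the firefly/Renilla ratio behind them is not deposited; fold cut for lowering reported inconsistently.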 Raw values vary from plate to plate and are shown uncorrected. Not given: the amount of reagent.

Assay: 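Knock-downs that decrease or increase androgen receptor reporter signal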 (primary screen)
System: Drosophila S2R+ cells
Reagents: long dsRNA against Drosophila genes
Duration: 72 h (48 h, then 24 h hormone)
Conditions: synthetic androgen R1881 at 10 nM for 24 h
Read-out: 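Firefly light from an androgen-responsive reporter and Renilla control light per well, raw and unnormalised, for each of two replicates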
Scale: firefly reporter light: higher = more light from androgen-responsive reporter; Renilla control light: higher = more constitutive control signal (cell number, transfection)
Active means: 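Hit when the log firefly-to-Renilla ratio dropped or increased by a fixed fold versus the mean of GFP or LacZ controls across duplicate plates; lowering cut given as 1.5 and as 3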
Meaning of the calls: active = hit: reporter lowered or raised; inactive = no hit

CG30116 (GeneID 37126) [DRSC05935]: firefly reporter light, replicate 1 = 5.34e5; firefly reporter light, replicate 2 = 6.08e5; Renilla control light, replicate 1 = 8.06e5; Renilla control light, replicate 2 = 8.61e5; outcome = inactive
CG30116 (GeneID 37126) [DRSC06685]: firefly reporter light, replicate 1 = 1.10e5; firefly reporter light, replicate 2 = 1.19e5; Renilla control light, replicate 1 = 1.79e6; Renilla control light, replicate 2 = 1.33e6; outcome = inactive
Mtmr6 (GeneID 37707) [DRSC04046]: firefly reporter light, replicate 1 = 3.36e5; firefly reporter light, replicate 2 = 2.73e5; Renilla control light, replicate 1 = 2.21e6; Renilla control light, replicate 2 = 1.77e6; outcome = inactive
Mtmr6 (GeneID 37707) [DRSC26569]: firefly reporter light, replicate 1 = 2.58e5; firefly reporter light, replicate 2 = 2.44e5; Renilla control light, replicate 1 = 5.67e5; Renilla control light, replicate 2 = 6.09e5; outcome = inactive
Mtmr6 (GeneID 37707) [DRSC36793]: outcome = inactive
Mtmr6 (GeneID 37707) [DRSC36794]: outcome = inactive
Alp6 (GeneID 35981) [DRSC06710]: firefly reporter light, replicate 1 = 9.90e5; firefly reporter light, replicate 2 = 1.05e6; Renilla control light, replicate 1 = 1.63e6; Renilla control light, replicate 2 = 2.05e6; outcome = inactive
Alp6 (GeneID 35981) [DRSC36858]: outcome = inactive
Aldh (GeneID 34256) [DRSC02717]: firefly reporter light, replicate 1 = 1.92e5; firefly reporter light, replicate 2 = 2.36e5; Renilla control light, replicate 1 = 1.32e6; Renilla control light, replicate 2 = 1.63e6; outcome = inactive
CG30338 (GeneID 246548) [DRSC05166]: firefly reporter light, replicate 1 = 2.76e5; firefly reporter light, replicate 2 = 4.08e5; Renilla control light, replicate 1 = 4.34e5; Renilla control light, replicate 2 = 8.34e5; outcome = inactive

The list goes on; the last 3 above are carried over.
Alp6 (GeneID 35981) [DRSC36858]: outcome = inactive
Aldh (GeneID 34256) [DRSC02717]: firefly reporter light, replicate 1 = 1.92e5; firefly reporter light, replicate 2 = 2.36e5; Renilla control light, replicate 1 = 1.32e6; Renilla control light, replicate 2 = 1.63e6; outcome = inactive
CG30338 (GeneID 246548) [DRSC05166]: firefly reporter light, replicate 1 = 2.76e5; firefly reporter light, replicate 2 = 4.08e5; Renilla control light, replicate 1 = 4.34e5; Renilla control light, replicate 2 = 8.34e5; outcome = inactive
Sec3 (GeneID 39940) [DRSC10384]: firefly reporter light, replicate 1 = 85322; firefly reporter light, replicate 2 = 83435; Renilla control light, replicate 1 = 5.36e5; Renilla control light, replicate 2 = 8.01e5; outcome = inactive
RpS8 (GeneID 43532) [DRSC16318]: firefly reporter light, replicate 1 = 1.01e5; firefly reporter light, replicate 2 = 97183; Renilla control light, replicate 1 = 9.41e5; Renilla control light, replicate 2 = 1.26e6; outcome = inactive
CG16903 (GeneID 31178) [DRSC18561]: firefly reporter light, replicate 1 = 2.45e5; firefly reporter light, replicate 2 = 2.36e5; Renilla control light, replicate 1 = 3.35e6; Renilla control light, replicate 2 = 2.74e6; outcome = inactive
CG16903 (GeneID 31178) [DRSC36971]: outcome = inactive
mRpL14 (GeneID 31222) [DRSC18597]: firefly reporter light, replicate 1 = 1.52e5; firefly reporter light, replicate 2 = 1.61e5; Renilla control light, replicate 1 = 2.37e6; Renilla control light, replicate 2 = 2.65e6; outcome = inactive
mRpL14 (GeneID 31222) [DRSC24034]: firefly reporter light, replicate 1 = 4.54e5; firefly reporter light, replicate 2 = 3.78e5; Renilla control light, replicate 1 = 3.34e5; Renilla control light, replicate 2 = 4.02e5; outcome = inactive
CG15561 (GeneID 43692) [DRSC15100]: firefly reporter light, replicate 1 = 2.28e5; firefly reporter light, replicate 2 = 2.33e5; Renilla control light, replicate 1 = 1.94e6; Renilla control light, replicate 2 = 3.16e6; outcome = inactive
CG15561 (GeneID 43692) [DRSC24085]: firefly reporter light, replicate 1 = 1.27e6; firefly reporter light, replicate 2 = 9.04e5; Renilla control light, replicate 1 = 7.12e5; Renilla control light, replicate 2 = 6.96e5; outcome = inactive
Syx18 (GeneID 42933) [DRSC14628]: firefly reporter light, replicate 1 = 1.12e5; firefly reporter light, replicate 2 = 1.01e5; Renilla control light, replicate 1 = 7.89e5; Renilla control light, replicate 2 = 6.69e5; outcome = inactive
Hacd1 (GeneID 34614) [DRSC02988]: firefly reporter light, replicate 1 = 6.15e5; firefly reporter light, replicate 2 = 8.32e5; Renilla control light, replicate 1 = 1.26e6; Renilla control light, replicate 2 = 1.51e6; outcome = inactive
rpr (GeneID 40015) [DRSC11390]: firefly reporter light, replicate 1 = 2.65e5; firefly reporter light, replicate 2 = 2.39e5; Renilla control light, replicate 1 = 2.15e6; Renilla control light, replicate 2 = 2.43e6; outcome = inactive
